Experimental data published in paper doi:10.1101/617845.
These are yes or no findings as the source states them, for the method shown. Binding seen in cells or lysates may run through a third protein. Some binding calls cover weakened binding; strength is not graded here.

Chains of the proteins cited; added tags and fusions are not shown.
UniProt P70452: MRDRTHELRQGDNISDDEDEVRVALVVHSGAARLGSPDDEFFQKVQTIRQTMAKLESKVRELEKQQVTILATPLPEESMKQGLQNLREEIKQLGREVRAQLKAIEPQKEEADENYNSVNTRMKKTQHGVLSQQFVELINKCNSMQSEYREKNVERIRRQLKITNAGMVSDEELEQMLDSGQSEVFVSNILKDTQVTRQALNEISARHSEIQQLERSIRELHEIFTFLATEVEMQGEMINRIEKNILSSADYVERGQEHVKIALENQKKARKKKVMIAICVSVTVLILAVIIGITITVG

Target: T1, tomosyn (syntaxin-1-binding protein 5, STXBP5) (mouse (endogenous in cultured cortical neurons)) (UniProt Q8K400)
T1 sequence: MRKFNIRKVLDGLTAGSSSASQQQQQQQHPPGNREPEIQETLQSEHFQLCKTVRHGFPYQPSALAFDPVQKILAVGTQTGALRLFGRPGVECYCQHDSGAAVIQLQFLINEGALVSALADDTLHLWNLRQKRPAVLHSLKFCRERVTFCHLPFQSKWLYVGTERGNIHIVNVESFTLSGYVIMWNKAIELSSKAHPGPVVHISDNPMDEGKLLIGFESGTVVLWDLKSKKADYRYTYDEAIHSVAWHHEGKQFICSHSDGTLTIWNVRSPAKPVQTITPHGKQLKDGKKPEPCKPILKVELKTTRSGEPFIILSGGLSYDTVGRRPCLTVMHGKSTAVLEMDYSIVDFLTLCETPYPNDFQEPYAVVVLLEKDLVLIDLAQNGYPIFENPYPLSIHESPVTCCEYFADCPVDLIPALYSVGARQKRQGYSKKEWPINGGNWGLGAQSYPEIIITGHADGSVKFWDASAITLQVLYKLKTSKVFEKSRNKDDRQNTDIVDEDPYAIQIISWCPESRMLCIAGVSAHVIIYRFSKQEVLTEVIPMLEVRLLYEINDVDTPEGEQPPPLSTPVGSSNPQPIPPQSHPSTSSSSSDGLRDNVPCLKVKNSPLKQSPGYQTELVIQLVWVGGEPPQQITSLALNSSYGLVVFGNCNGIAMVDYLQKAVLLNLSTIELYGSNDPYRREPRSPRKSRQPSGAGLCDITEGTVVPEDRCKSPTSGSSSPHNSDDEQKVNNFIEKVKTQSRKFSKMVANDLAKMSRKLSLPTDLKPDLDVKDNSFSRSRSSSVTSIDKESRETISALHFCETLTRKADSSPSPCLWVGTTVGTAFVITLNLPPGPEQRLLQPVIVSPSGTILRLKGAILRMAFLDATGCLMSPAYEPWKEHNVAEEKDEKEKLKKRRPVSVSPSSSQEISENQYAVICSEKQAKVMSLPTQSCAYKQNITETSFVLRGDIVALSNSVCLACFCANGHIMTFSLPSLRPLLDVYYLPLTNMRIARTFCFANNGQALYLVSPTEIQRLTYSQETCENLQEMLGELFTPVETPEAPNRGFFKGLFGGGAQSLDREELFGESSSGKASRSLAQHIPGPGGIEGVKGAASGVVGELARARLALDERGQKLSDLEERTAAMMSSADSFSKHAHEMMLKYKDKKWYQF
Assay: co-IP

syntaxin-4 (from UniProt P70452 1-298)
binding: binds
